Test results taken from paper PMC6335440.

T1: full length myc-tagged Atmin (UniProt Q6P9S1)
T1 sequence: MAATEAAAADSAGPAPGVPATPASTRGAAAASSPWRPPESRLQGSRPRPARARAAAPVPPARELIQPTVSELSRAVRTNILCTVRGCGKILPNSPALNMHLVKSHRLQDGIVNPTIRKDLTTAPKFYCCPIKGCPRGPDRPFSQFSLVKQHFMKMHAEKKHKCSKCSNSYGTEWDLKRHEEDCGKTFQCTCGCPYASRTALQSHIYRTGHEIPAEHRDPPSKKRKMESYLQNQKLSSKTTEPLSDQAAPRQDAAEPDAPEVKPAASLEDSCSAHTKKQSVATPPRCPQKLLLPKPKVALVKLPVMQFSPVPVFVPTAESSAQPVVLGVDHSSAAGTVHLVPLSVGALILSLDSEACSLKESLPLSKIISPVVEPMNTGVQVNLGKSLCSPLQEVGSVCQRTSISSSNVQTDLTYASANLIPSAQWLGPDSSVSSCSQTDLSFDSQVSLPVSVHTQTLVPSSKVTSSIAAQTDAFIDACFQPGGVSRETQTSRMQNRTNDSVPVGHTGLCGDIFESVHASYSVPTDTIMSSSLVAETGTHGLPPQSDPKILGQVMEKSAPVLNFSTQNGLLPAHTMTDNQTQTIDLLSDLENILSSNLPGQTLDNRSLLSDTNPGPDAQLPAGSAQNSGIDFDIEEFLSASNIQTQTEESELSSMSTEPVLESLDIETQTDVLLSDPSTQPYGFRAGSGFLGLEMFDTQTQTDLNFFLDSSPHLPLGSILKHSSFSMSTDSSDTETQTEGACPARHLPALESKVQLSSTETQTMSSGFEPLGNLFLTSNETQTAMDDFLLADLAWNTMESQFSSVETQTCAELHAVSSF


Columns and labels:
[1] = molecular target: T1, full length myc-tagged Atmin; experiment: co-IP; forward: ATMIN-MYC precipitated with rabbit anti-MYC and Protein G sepharose from lysates of co-transfected HEK293T cells, overnight at 4 °C; lysis buffer 50 mM Tris pH 8, 150 mM NaCl, 1% NP-40; blot for GFP
[2] = molecular target: the last 193 amino acids of the C-terminus of GFP-tagged Fibrocystin; experiment: co-IP; reverse: C-terminal Pkhd1-GFP precipitated with mouse anti-GFP and Protein G sepharose from lysates of co-transfected HEK293T cells, overnight at 4 °C; lysis buffer 50 mM Tris pH 8, 150 mM NaCl, 1% NP-40; blot for MYC

binding [1] | binding [2] | Molecule
no binding |  | the last 193 amino acids of the C-terminus of GFP-tagged Fibrocystin (domain or fragment)
 | no binding | full length myc-tagged Atmin (protein, UniProt Q6P9S1 1-818) MAATEAAAADSAGPAPGVPATPASTRGAAAASSPWRPPESRLQGSRPRPARARAAAPVPPARELIQPTVSELSRAVRTNILCTVRGCGKILPNSPALNMHLVKSHRLQDGIVNPTIRKDLTTAPKFYCCPIKGCPRGPDRPFSQFSLVKQHFMKMHAEKKHKCSKCSNSYGTEWDLKRHEEDCGKTFQCTCGCPYASRTALQSHIYRTGHEIPAEHRDPPSKKRKMESYLQNQKLSSKTTEPLSDQAAPRQDAAEPDAPEVKPAASLEDSCSAHTKKQSVATPPRCPQKLLLPKPKVALVKLPVMQFSPVPVFVPTAESSAQPVVLGVDHSSAAGTVHLVPLSVGALILSLDSEACSLKESLPLSKIISPVVEPMNTGVQVNLGKSLCSPLQEVGSVCQRTSISSSNVQTDLTYASANLIPSAQWLGPDSSVSSCSQTDLSFDSQVSLPVSVHTQTLVPSSKVTSSIAAQTDAFIDACFQPGGVSRETQTSRMQNRTNDSVPVGHTGLCGDIFESVHASYSVPTDTIMSSSLVAETGTHGLPPQSDPKILGQVMEKSAPVLNFSTQNGLLPAHTMTDNQTQTIDLLSDLENILSSNLPGQTLDNRSLLSDTNPGPDAQLPAGSAQNSGIDFDIEEFLSASNIQTQTEESELSSMSTEPVLESLDIETQTDVLLSDPSTQPYGFRAGSGFLGLEMFDTQTQTDLNFFLDSSPHLPLGSILKHSSFSMSTDSSDTETQTEGACPARHLPALESKVQLSSTETQTMSSGFEPLGNLFLTSNETQTAMDDFLLADLAWNTMESQFSSVETQTCAELHAVSSF

These are yes or no findings as the source states them, for the method shown. Binding seen in cells or lysates may run through a third protein. Sequences can lack the tags named with a protein.
